{"sequences": {"note": "Sequences of proteins named here, by UniProt entry; tags and fusion partners are left off.", "UniProt P33533, whole entry": "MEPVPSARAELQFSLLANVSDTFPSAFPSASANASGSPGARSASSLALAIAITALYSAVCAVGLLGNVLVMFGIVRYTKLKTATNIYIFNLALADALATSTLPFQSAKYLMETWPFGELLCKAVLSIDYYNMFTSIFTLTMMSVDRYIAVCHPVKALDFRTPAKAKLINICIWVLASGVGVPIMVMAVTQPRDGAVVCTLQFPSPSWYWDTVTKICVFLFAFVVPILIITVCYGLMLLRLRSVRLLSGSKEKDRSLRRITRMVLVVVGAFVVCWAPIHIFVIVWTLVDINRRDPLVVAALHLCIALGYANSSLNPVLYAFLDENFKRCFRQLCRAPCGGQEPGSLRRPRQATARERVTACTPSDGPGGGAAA"}, "source": "patent US5889029A", "about": "“Use of cotinine in treating psychiatric disorders” (priority 1997, dated 1999)", "target": "T1, Opiate (Delta) (Rattus norvegicus, UniProt P33533)", "T1 construct": "Rat forebrain membranes; from tissue; host or cells: rat forebrain membranes", "experiment": "Opiate (Delta) Binding Assay"}
{"smiles": "Oc1ccc2c3c1O[C@H]1[C@@H](O)CC[C@@]4(O)[C@@H](C2)N(CC2CCC2)CC[C@]314", "note": "[Nalbuphine]", "values": [{"measurement": "Ki", "value": 0.124, "unit": "µM"}]}
